The test addresses mouse cGAS (cyclic GMP-AMP synthase), endogenous in RAW264.7 (mouse (endogenous in RAW264.7)) (UniProt Q8C6L5). Description: affinity purification with mass spectrometry; co-IP from RAW264.7 cells with an anti-mouse cGAS antibody, then mass spectrometry; HSV-1-infected group.

By UniProt entry, the sequences of proteins in these tests, tags left out.
UniProt Q8C6L5: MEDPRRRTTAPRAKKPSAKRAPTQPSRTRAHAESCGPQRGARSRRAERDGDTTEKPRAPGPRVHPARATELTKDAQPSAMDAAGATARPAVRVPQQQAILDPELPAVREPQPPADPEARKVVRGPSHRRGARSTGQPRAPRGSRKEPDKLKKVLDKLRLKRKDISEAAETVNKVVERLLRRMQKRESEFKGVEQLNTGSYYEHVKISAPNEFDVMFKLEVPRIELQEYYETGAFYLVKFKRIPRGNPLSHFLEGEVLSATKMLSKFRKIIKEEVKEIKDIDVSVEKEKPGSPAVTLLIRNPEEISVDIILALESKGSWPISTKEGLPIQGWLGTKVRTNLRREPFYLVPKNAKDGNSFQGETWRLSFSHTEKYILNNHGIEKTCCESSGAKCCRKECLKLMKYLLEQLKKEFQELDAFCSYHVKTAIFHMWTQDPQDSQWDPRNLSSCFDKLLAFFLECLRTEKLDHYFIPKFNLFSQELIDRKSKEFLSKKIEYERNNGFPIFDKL

1 molecule from publication PMC12667517, “Gigaxonin Potentiates Antiviral Innate Immune Responses by Targeting cGAS and TREX1” (Advanced Science, 2025) can be followed below.

These are yes or no findings as the source states them, for the method shown. In cells and extracts the contact can be indirect. A yes stands for co-enrichment or nearness to the bait. Other partners may have been found.

B1: murine gigaxonin, endogenous in RAW264.7 (protein, UniProt Q8CA72 1-597)
chain: MAEGSAVSDPQHAARLLRALSSFREEARFCDAHLVLDGEEIPVQKNILAAASPYIRTKLNYNPPKDDGSTYKIELEGISVMVMREILDYIFSGQIRLNEDTIQDVVQAADLLLLTDLKTLCCEFLEGCIAAENCIGIRDFALHYCLHHVHYLATEYLETHFRDVSSTEEFLELSPQKLKEVISLEKLNVGNERYVFEAVIRWIAHDVEMRKVHMKDVMSALWVSGLDSSYLREQMLNEPLVREIVKECSNIPLSQPQQGEAMLASFKPRGYSECIVTIGGEERVSRKPTAAMRCMCPLYDPNRQLWIELAPLSMPRINHGVLSAEGFLFVLGGQDENKQTLSSGEKYDPDANTWTALPPMHEARHNFGIVEIDGMLYILGGEDGDRELISMECYDIYSKTWTKQPDLTMVRKIGCYAAMKKKIYAMGGGSYGKLFESVECYDPRTQQWTAICPLKERRFGAVACGVAMELYVFGGVRSREDIQGSEMVTCKSEFYHDEFKRWIYLNDQNLCIPASSSFVYGAVPIGASIYVIGDLDTGTNYDYVREFKRSTGTWHHTKPLLPSDLRRTGCAALRIANCKLFRLQLQQGLFRIRVHSP
In the case of B1, the binding entry is “binds”.
